This note sets out measurements from article PMC2824762, “Analysis of the role of PCNA-DNA contacts during clamp loading” (BMC Structural Biology, 2010).

Amino acid sequences for entries named in this document (tags omitted).
UniProt P15873: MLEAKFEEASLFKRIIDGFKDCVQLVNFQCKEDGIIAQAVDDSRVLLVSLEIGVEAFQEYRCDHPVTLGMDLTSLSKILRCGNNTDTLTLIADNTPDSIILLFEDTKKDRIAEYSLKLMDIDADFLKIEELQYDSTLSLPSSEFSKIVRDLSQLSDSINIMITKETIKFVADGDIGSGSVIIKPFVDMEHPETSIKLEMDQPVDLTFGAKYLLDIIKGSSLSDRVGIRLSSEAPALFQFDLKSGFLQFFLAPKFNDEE

Results are given in words; binding and its absence hold for the method and conditions named. Some entries that bind do so weakly or less than the wild type.

For this assay, the target named is S. cerevisiae Proliferating Cell Nuclear Antigen (PCNA), wild type (S. cerevisiae) (UniProt P15873). In words: crystal structure; wild-type PCNA crystallised with Cy5-labelled primer-template DNA; cubic space group; PCNA placed by molecular replacement; no DNA density; not deposited; both purified.

“S. cerevisiae Proliferating Cell Nuclear Antigen (PCNA), wild type (from UniProt P15873 1-258)”: the binding result is given as “binds”.
